Results deposited as PubChem BioAssay AID1259291 (Sanger Institute, 2017)
Here is a random part of 794 deposited reagents. Of all reagents, 15 (1.9%) are marked active. 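Calls rest on knock-down alone; drug synergy scores do not affect them; drugs added a day post-transfection, DMSO vehicle as comparison.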 No viability above 1 is reported: the scale is capped. Not given: the amount of reagent, the time to read-out.

Purpose: 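Find kinase and colorectal-cancer-mutated genes whose loss kills HT29 cells or aids anchor drugs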 (primary screen)
Cell system: HT29 human colorectal cancer cells
Knock-down reagent: siRNA pool against human genes
Conditions: anchor drugs added a day after transfection: BYL719 at 1 µM, cetuximab at 5 µg/ml or trametinib at 10 nM, or DMSO vehicle alone
Measurement: 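Replicate-averaged viability relative to non-targeting pool, robust z-score based on control wells, plus per-drug synergy score for 1 µM BYL719, 5 µg/ml cetuximab and 10 nM trametinib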
Reading the numbers: robust z-score, knock-down alone and viability, knock-down alone: higher = more viable cells; synergy score with BYL719 and synergy score with cetuximab and synergy score with trametinib: higher = stronger synergistic killing with drug
Rule for the call: 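Essential when the robust z-score for knock-down without any drug is below -3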
Meaning of the calls: active = essential (knock-down alone); inactive = no change alone

| gene | robust z-score, knock-down alone | viability, knock-down alone (fraction of control) | synergy score with BYL719 | synergy score with cetuximab | synergy score with trametinib | activity call |
| --- | --- | --- | --- | --- | --- | --- |
| CAMK1D | 0.552 | 1 | -0.00452 | 0.0104 | -0.0202 | inactive |
| FLT1 | -1.07 | 0.9 | -0.219 | -0.0623 | -0.197 | inactive |
| AGK | 0.552 | 1 | 0.199 | 0 | -0.000259 | inactive |
| MPP1 | -0.175 | 0.955 | -0.0449 | -0.0452 | -0.0157 | inactive |
| CDK4 | 0.552 | 1 | -0.024 | 0 | 0.0129 | inactive |
| MYH10 | -0.526 | 0.933 | -0.0321 | -0.0504 | 0.111 | inactive |
| CTNNB1 | -0.105 | 0.959 | 0.121 | 0.246 | -0.0849 | inactive |
| STYK1 | 0.381 | 0.989 | 0.0846 | 0.132 | 0.0406 | inactive |
| DSTYK | 0.552 | 1 | 0.0421 | 0.0633 | 0.0313 | inactive |
| NEK3 | -0.242 | 0.951 | 0.0164 | 0.0485 | 0.0165 | inactive |
| ROR2 | -1.62 | 0.865 | -0.0496 | -0.0891 | 0.111 | inactive |
| STAG2 | 0.143 | 0.975 | 0.0277 | 0.00175 | 0.0189 | inactive |
| CERT1 | 0.552 | 1 | -0.0358 | 0 | 0.112 | inactive |
| TAOK2 | -1.54 | 0.87 | -0.167 | -0.0596 | -0.00295 | inactive |
| SRPK3 | 0.552 | 1 | 0.00898 | 0.0272 | 0.0375 | inactive |
| HIPK3 | 0.552 | 1 | -0.113 | 0.0425 | 0.0792 | inactive |
| PI4KA | -2.32 | 0.822 | -0.275 | -0.139 | 0.0994 | inactive |
| SLK | 0.552 | 1 | -0.00513 | 0.0364 | 0.0105 | inactive |
| EPHA10 | -0.562 | 0.931 | 0.0472 | 0.078 | 0.119 | inactive |
| CEP290 | 0.552 | 1 | 0.053 | 0.0306 | 0.0679 | inactive |
| TSSK2 | 0.552 | 1 | 0.0212 | 0 | 0.0366 | inactive |
| MAPK3 | 0.552 | 1 | 0.0466 | 0 | 0.187 | inactive |
| PIK3CA | -0.921 | 0.909 | -0.128 | -0.0403 | 0.0579 | inactive |
| PDK4 | 0.475 | 0.995 | 0.0495 | -0.00487 | 0.0222 | inactive |
| MARK2 | -3.17 | 0.769 | -0.0955 | -0.0497 | 0.0532 | active |
| PRKCA | 0.552 | 1 | 0.0716 | 0.0295 | 0.0895 | inactive |
| CAMK1G | 0.552 | 1 | -0.0548 | 0.0872 | -0.153 | inactive |
| ULK1 | 0.552 | 1 | 0.00903 | 0 | -0.0483 | inactive |
| NEK2 | 0.552 | 1 | 0.0504 | 0 | -0.05 | inactive |
| JAK1 | 0.552 | 1 | -0.158 | 0.0802 | -0.0329 | inactive |

Single entries from the entries so far:
Result of MYH10 under “activity call”: inactive
Value of DSTYK in “robust z-score, knock-down alone”: 0.552
For “synergy score with cetuximab”, TAOK2 has -0.0596

The results go on.
| gene | robust z-score, knock-down alone | viability, knock-down alone (fraction of control) | synergy score with BYL719 | synergy score with cetuximab | synergy score with trametinib | activity call |
| --- | --- | --- | --- | --- | --- | --- |
| CTCF | -1.21 | 0.891 | -0.0492 | -0.039 | 0.00634 | inactive |
| BRD4 | 0.552 | 1 | 0.113 | 0 | 0.108 | inactive |
| MAPK8 | -1.17 | 0.893 | -0.111 | -0.0634 | -0.0446 | inactive |
| ADK | 0.552 | 1 | 0.108 | 0 | 0.0376 | inactive |
| NME3 | 0.0202 | 0.967 | -0.111 | -0.0331 | -0.0633 | inactive |
| OXSR1 | 0.552 | 1 | 0.0482 | 0.0168 | 0.0542 | inactive |
| LTK | 0.552 | 1 | -0.104 | 0.00364 | 0.0281 | inactive |
| MAPK9 | 0.552 | 1 | -0.0837 | 0.0263 | -0.0054 | inactive |
| KSR2 | 0.552 | 1 | -0.0206 | 0.0298 | 0.0209 | inactive |
| PRKX | 0.552 | 1 | -0.0974 | 0 | 0.00991 | inactive |
| PPP2R1A | 0.552 | 1 | -0.107 | 0 | 0.0309 | inactive |
| RPS6KA4 | -2.77 | 0.794 | -0.00964 | -0.0345 | 0.213 | inactive |
| ROCK1 | 0.552 | 1 | -0.117 | 0 | -0.0331 | inactive |
| MAP3K1 | -5.61 | 0.618 | -0.303 | -0.139 | -0.145 | active |
| MLKL | -1.88 | 0.849 | -0.186 | -0.151 | -0.00184 | inactive |
| LCK | 0.262 | 0.982 | 0.0712 | 0.059 | -0.0991 | inactive |
| TCF12 | 0.552 | 1 | -0.0977 | 0 | -0.00875 | inactive |
| OBSCN | 0.552 | 1 | -0.0921 | 0 | -0.118 | inactive |
| PIK3R2 | -0.75 | 0.919 | -0.0836 | -0.0808 | -0.0895 | inactive |
| CREBBP | -1.05 | 0.9 | -0.00717 | -0.0226 | -0.0301 | inactive |
| RUNX1 | 0.552 | 1 | 0.00895 | 0 | 0.079 | inactive |
| TBCK | 0.552 | 1 | 0.152 | 0 | 0.0855 | inactive |
| COQ8B | -0.0761 | 0.961 | 0.0143 | 0.0374 | -0.0941 | inactive |
| EEF2K | -1.58 | 0.868 | 0.104 | -0.0889 | -0.176 | inactive |
| EPHA8 | 0.552 | 1 | 0.0112 | 0.0631 | 0.0248 | inactive |
| EPHA2 | 0.552 | 1 | -0.00956 | 0 | -0.0716 | inactive |
| NEK6 | 0.37 | 0.989 | -0.15 | 0.016 | -0.176 | inactive |
| MAST3 | -2.14 | 0.833 | -0.0863 | -0.101 | -0.0318 | inactive |
| STK3 | 0.552 | 1 | -0.0542 | 0.155 | -0.0181 | inactive |
| TNK1 | 0.113 | 0.973 | -0.0573 | 0.0978 | -0.123 | inactive |
| ROCK2 | 0.194 | 0.978 | -0.115 | 0.00841 | 0.091 | inactive |
| PIK3CG | 0.356 | 0.988 | 0.0512 | 0.0399 | 0.0713 | inactive |
| ERBB3 | 0.552 | 1 | -0.0488 | 0.11 | -0.2 | inactive |
